This is one part of the list. Shown are side measurements of this screen, not its main read-out; they come without a call. The list favours compounds with an active or inconclusive main result. The note in brackets gives the kind of curve behind each potency; many fits are weak.
Assay: qHTS Assay to Find Inhibitors of Chronic Active B-Cell Receptor Signaling
Conditions: ABC-DLBCL IkBa-CBG/CBR reporter, luminescence ratio (green luciferase fused to IkBa over red control in TMD8 lymphoma cells), 4 h
How it was run: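 Cell line TMD8 (human ABC DLBCL), stably expressing tet-inducible CBG68-IkBa fusion and CBR; IMDM/0.5% FBS; cpd up to 46 uM; dox induction, 4 h, 37C/5% CO2; dual luminescence; green/red ratio; MG132 control.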

[1] = measured here: CBR red luminescence, cell number
[2] = measured here: IkBa-CBG green luminescence

SMILES	AC50 [1]	AC50 [2]
O=C(O)CCCC(=O)OCCc1cc2ccccc2c(=O)o1	3.66 µM [falling, full curve]	
O=C(CCl)Nc1cccc(S(=O)(=O)NC2=NCCC2)c1		12.6 µM [falling, partial curve, poor fit]
N#CC1=C(N)NC(=S)C(C(N)=O)C1c1ccc(Cl)cc1Cl (stereo not given)	35.5 µM [falling, single point]	
CCOC(=O)c1sc(NC(=O)CSc2n[nH]c(-c3ccccc3)n2)c(C#N)c1C	25.9 µM [falling, single point]	
Nn1cnnc1N/N=C/c1ccccc1C(F)(F)F	6.31 µM [rising, single point]	
Clc1ccc(-c2nnc(-c3ccco3)o2)cc1	3.16 µM [rising, partial curve, poor fit]	
COc1cccc(-c2cc(C(=O)N/N=C/c3ccco3)c3ccccc3n2)c1	1.41 µM [rising, single point]	
Oc1cccc2ccc(/C=C/c3c(F)cccc3Cl)nc12	15.8 µM [rising, partial curve]	25.1 µM [falling, single point]
COc1ccc(S(=O)(=O)N2CCOCC2)c(Cl)c1Cl		7.31 µM [falling, partial curve, poor fit]
O=C(NCCc1cn2ccsc2n1)c1cccs1	29.1 µM [falling, single point]	
O=C(c1ccco1)N(CCC(c1ccccc1)c1ccco1)Cc1ccc(F)cc1 (stereo not given)	35.5 µM [falling, single point]	
CCOC(=O)C1CCCN(c2c(NCCN(C)Cc3ccccc3)c(=O)c2=O)C1 (stereo not given)	18.4 µM [falling, single point]	
O=C(Nc1ccccc1)Nc1cc(Cl)cc(Cl)c1	1.84 µM [falling, partial curve, poor fit]	
CC1=CCn2c(=O)c3ccccc3c(=O)n2C1	6.51 µM [rising, single point]	
COC1(OC)N=C(N)C2(C#N)C(c3ccc4c(c3)OCO4)C12C#N (stereo not given)	0.282 µM [falling, full curve, poor fit]	
COc1ccccc1OCCNC(=O)c1cccc(S(=O)(=O)NCc2ccccc2)c1	0.082 µM [falling, full curve, poor fit]	
CCOc1nsc(OCC)n1	1.26 µM [rising, full curve]	

SMILES	AC50 [1]	AC50 [2]
Cc1ccccc1-n1c(=O)n(CCc2ccccc2)c(=O)c2[nH]cnc21	0.112 µM [falling, full curve, poor fit]	
COC(=O)/C=C/C1=CN(Cc2ccccc2)CCC1=O	3.66 µM [rising, single point]	
COc1ccc(C)cc1-n1c(SCC(=O)NCC2CCCO2)nc2c([nH]c3ccccc32)c1=O (stereo not given)	20 µM [falling, single point]	
Oc1c(N=Nc2ccccn2)ccc2ccccc12	35.5 µM [falling, single point]	
O=C(Nc1nc(=S)ss1)c1ccc(Cl)cc1Cl	0.0891 µM [rising, full curve, poor fit]	
Cc1c(NC(=O)c2ccc([N+](=O)[O-])o2)cccc1-c1nc2ncccc2o1	11.2 µM [falling, partial curve, poor fit]	
O=C(NC(NC(=S)Nc1ccc(Cl)cc1Cl)C(Cl)(Cl)Cl)c1cccc([N+](=O)[O-])c1 (stereo not given)	15.8 µM [falling, partial curve]	
Oc1ccc(Nc2nc3ccccc3nc2Nc2ccc(O)cc2)cc1	4.11 µM [falling, full curve]	
Cc1csc(NC(=O)c2ccc(OCC3CCCO3)cc2)n1 (stereo not given)	3.16 µM [falling, full curve]	
CC(=O)N1SC(N)=NC1c1ccccc1 (stereo not given)	20 µM [rising, single point]	
CNC(=O)Nc1ccc(Cl)cc1	1.64 µM [rising, partial curve, poor fit]	
CCOc1cc(C)c(S(=O)(=O)Nc2ccc3cn[nH]c3c2)cc1C	35.5 µM [falling, single point]	
C[C@@H](C(=O)NCCc1ccccc1F)N1C(=O)N2CCc3c([nH]c4ccccc34)[C@@]2(C)C1=O	28.2 µM [falling, single point]	
CCCCCCCCS(=O)C1CS(=O)(=O)CC1O (stereo not given)	2.82 µM [rising, single point]	
COc1ccc(-c2cn3nc(C)c(C)nc3n2)cc1OC	0.326 µM [rising, partial curve, poor fit]	
COc1ccc(-c2csc(Nc3cccc(C)n3)n2)cc1C	35.5 µM [falling, single point]	
COc1ccc(C(NCC(=O)NC(C)c2ccc(Cl)cc2)c2ccccc2)cc1 (stereo not given)	12.6 µM [falling, partial curve, poor fit]	

Ordered by SMILES length (ascending): some entries from above.
SMILES	AC50 [1]	AC50 [2]
O=C(NCCc1cn2ccsc2n1)c1cccs1	29.1 µM [falling, single point]	
COC(=O)/C=C/C1=CN(Cc2ccccc2)CCC1=O	3.66 µM [rising, single point]	
COC1(OC)N=C(N)C2(C#N)C(c3ccc4c(c3)OCO4)C12C#N (stereo not given)	0.282 µM [falling, full curve, poor fit]	

— PubChem BioAssay AID493014 (National Center for Advancing Translational Sciences (NCATS), 2011)
